{"source": "paper PMC8783683", "about": "“Plasma cell dependence on histone/protein deacetylase 11 reveals a therapeutic target in multiple myeloma” (JCI Insight, 2021)", "binders": {"B1": {"name": "histone/protein deacetylase 11 (HDAC11), endogenous (enzyme, UniProt Q96DB2 1-347, looked up)", "chain": "MLHTTQLYQHVPETRWPIVYSPRYNITFMGLEKLHPFDAGKWGKVINFLKEEKLLSDSMLVEAREASEEDLLVVHTRRYLNELKWSFAVATITEIPPVIFLPNFLVQRKVLRPLRTQTGGTIMAGKLAVERGWAINVGGGFHHCSSDRGGGFCAYADITLAIKFLFERVEGISRATIIDLDAHQGNGHERDFMDDKRVYIMDVYNRHIYPGDRFAKQAIRRKVELEWGTEDDEYLDKVERNIKKSLQEHLPDVVVYNAGTDILEGDRLGGLSISPAGIVKRDELVFRMVRGRRVPILMVTSGGYQKRTARIIADSILNLFGLGLIGPESPSVSAQNSDTPLLPPAVP", "notes": "HDAC11, endogenous in human multiple myeloma cells (MM1.S line and primary patient MM cells), detected by mouse anti-HDAC11 in PLA; source: endogenous, MM1.S cells; endogenous, patient-derived primary MM cells"}, "B2": {"name": "HA-tagged WT HDAC11 (HDAC11^wt.HA) (enzyme, UniProt Q96DB2 1-347)", "chain": "B1 chain"}, "B3": {"name": "IFN response factor 4 (IRF4), endogenous (protein, UniProt Q15306 1-451)", "chain": "MNLEGGGRGGEFGMSAVSCGNGKLRQWLIDQIDSGKYPGLVWENEEKSIFRIPWKHAGKQDYNREEDAALFKAWALFKGKFREGIDKPDPPTWKTRLRCALNKSNDFEELVERSQLDISDPYKVYRIVPEGAKKGAKQLTLEDPQMSMSHPYTMTTPYPSLPAQQVHNYMMPPLDRSWRDYVPDQPHPEIPYQCPMTFGPRGHHWQGPACENGCQVTGTFYACAPPESQAPGVPTEPSIRSAEALAFSDCRLHICLYYREILVKELTTSSPEGCRISHGHTYDASNLDQVLFPYPEDNGQRKNIEKLLSHLERGVVLWMAPDGLYAKRLCQSRIYWDGPLALCNDRPNKLERDQTCKLFDTQQFLSELQAFAHHGRSLPRFQVTLCFGEEFPDPQRQRKLITAHVEPLLARQLYYFAQQNSGHFLRGYDLPEHISNPEDYHRSIRHSSIQE"}}, "key": {"[1]": {"target": "T1, IFN response factor 4 (IRF4), endogenous (human (endogenous in MM1.S and primary MM cells)) (UniProt Q15306)", "T1 sequence": "B3 chain", "test": "proximity ligation; fixed parental MM1.S cells, untreated or with LPS (5 μg/mL); goat anti-IRF4 and mouse anti-HDAC11, Duolink kit, confocal microscopy"}, "[2]": {"target": "T1, IFN response factor 4 (IRF4), endogenous (human (endogenous in MM1.S and primary MM cells))", "test": "proximity ligation; primary MM cells from patient samples, cultured with the patient's serum, untreated or with LPS (5 μg/mL, 24 hours)"}, "[3]": {"target": "T1, IFN response factor 4 (IRF4), endogenous (human (endogenous in MM1.S and primary MM cells))", "test": "co-IP; reciprocal co-IP from MM1.S cell lines stably transfected with HA-tagged WT or enzyme-inactive HDAC11; IP with anti-IRF4 and anti-HA, rabbit IgG as isotype control; protein A/G PLUS-Agarose"}, "[4]": {"target": "T1, IFN response factor 4 (IRF4), endogenous (human (endogenous in MM1.S and primary MM cells))", "test": "proximity ligation; fixed MM1.S cells transfected with WT or enzymatically inactive HDAC11 or empty vector; goat anti-IRF4 and mouse anti-HDAC11, Duolink kit"}, "[5]": {"target": "T2, HA-tagged WT HDAC11 (HDAC11^wt.HA) (UniProt Q96DB2)", "T2 sequence": "B1 chain", "test": "co-IP; reciprocal co-IP from MM1.S cell lines stably transfected with HA-tagged WT or enzyme-inactive HDAC11; IP with anti-IRF4 and anti-HA, rabbit IgG as isotype control; protein A/G PLUS-Agarose"}}, "note": "Results are given in words; binding and its absence hold for the method and conditions named. Binding seen in cells or lysates may run through a third protein. Some results given as binding are weak or reduced against the parent protein; the word gives no strength. Where a sequence is shown, tags or fusion partners need not be part of it."}
{"binder": "B1", "values": [{"measurement": "binding", "setting": "[1]", "value": "binds"}, {"measurement": "binding", "setting": "[2]", "value": "binds"}]}
{"binder": "B2", "values": [{"measurement": "binding", "setting": "[3]", "value": "binds"}, {"measurement": "binding", "setting": "[4]", "value": "binds"}]}
{"binder": "B3", "values": [{"measurement": "binding", "setting": "[5]", "value": "binds"}]}
